Source: patent US20070026059A1, “Ligands for orphan nuclear hormone receptor steroidogenic factor-1 (SF-1)” (priority 2005, published 2007)
Results are given in words; binding and its absence hold for the method and conditions named. Some results given as binding are weak or reduced against the parent protein; the word gives no strength.

Protein sequences, listed by entry. Tags and fused reporters are not part of them. Residues count along the entry.
UniProt P45448, residues 313-560: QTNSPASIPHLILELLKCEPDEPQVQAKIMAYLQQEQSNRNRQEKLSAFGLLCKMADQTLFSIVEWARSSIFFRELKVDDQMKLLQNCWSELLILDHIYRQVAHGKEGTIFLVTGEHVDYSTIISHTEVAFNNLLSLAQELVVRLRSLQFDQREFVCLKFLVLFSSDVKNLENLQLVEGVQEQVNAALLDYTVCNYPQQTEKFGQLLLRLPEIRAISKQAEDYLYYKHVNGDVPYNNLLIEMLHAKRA

Key:
[1] = biological target: mouse SF-1 LBD A270W, 6xHis fusion protein (mouse) (UniProt P33242); test: AlphaScreen, TIF2 motif, with 1.25 uM 12PE
[2] = biological target: mouse SF-1 LBD L348W, 6xHis fusion protein (mouse) (UniProt P33242); test: AlphaScreen, TIF2 motif, with 1.25 uM 12PE
[3] = biological target: purified mouse LRH-1 (mouse) (UniProt P45448); test: AlphaScreen, purified mouse LRH-1 and TIF2 motif, with or without 1.25 uM phospholipids

binding [1]: binds
binding [2]: binds
binding [3]: binds
Binder: QEPVSPKKKENALLRYLLDKDDTKD (N-terminal biotinylation) [TIF2-3 peptide (third LxxLL motif from the co-activator TIF2), N-terminally biotinylated]
